Target: T1, ovalbumin (Gallus gallus, UniProt P01012)
T1 sequence (P01012 1-386): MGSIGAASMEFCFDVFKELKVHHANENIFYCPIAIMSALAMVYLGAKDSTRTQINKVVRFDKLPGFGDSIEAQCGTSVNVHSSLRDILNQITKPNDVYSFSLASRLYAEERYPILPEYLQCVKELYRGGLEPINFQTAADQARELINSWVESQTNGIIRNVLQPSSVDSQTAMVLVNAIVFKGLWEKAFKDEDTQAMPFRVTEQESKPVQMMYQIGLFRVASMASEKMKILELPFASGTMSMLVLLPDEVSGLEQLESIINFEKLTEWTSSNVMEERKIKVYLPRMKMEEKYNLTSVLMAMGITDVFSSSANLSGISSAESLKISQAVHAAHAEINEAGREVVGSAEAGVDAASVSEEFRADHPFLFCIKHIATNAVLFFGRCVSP
Assay: Solubilization of 0.5 wt % ovalbumin solution by surfactants
Format: physicochemical
Text: Other surfactants and concentrations were test against a solution 0.5 wt % ovalbumin.

CCCCCCCCCCCCCCCC[n+]1ccccc1 [Cetylpyridinium chloride]
complete solubilization of ovalbumin solution (Surfactant Concentration 0.0085 M): −
complete solubilization of ovalbumin solution (Surfactant Concentration 0.017 M): −
complete solubilization of ovalbumin solution (Surfactant Concentration 0.035 M): −
complete solubilization of ovalbumin solution (Surfactant Concentration 0.052 M): −
complete solubilization of ovalbumin solution (Surfactant Concentration 0.069 M): +
